Data published in US20140005126A1, “SCAFFOLD PEPTIDES” (ISOGENICA LTD, priority 2010, published 2014).
For at least one compound, name, drawing or mass did not settle the structure. Where a SMILES comes first, the peptide text is derived from it. The star is where a group is joined. Biotin = O=C1N[C@H]2[C@H](CS[C@H]2CCCCC(=O)*)N1

By UniProt entry, the sequences of proteins in these tests, tags left out. Chains listed by the source or under a name are the forms on record and can include a tag or linker.
UniProt P35968, with tags, fused parts or gaps: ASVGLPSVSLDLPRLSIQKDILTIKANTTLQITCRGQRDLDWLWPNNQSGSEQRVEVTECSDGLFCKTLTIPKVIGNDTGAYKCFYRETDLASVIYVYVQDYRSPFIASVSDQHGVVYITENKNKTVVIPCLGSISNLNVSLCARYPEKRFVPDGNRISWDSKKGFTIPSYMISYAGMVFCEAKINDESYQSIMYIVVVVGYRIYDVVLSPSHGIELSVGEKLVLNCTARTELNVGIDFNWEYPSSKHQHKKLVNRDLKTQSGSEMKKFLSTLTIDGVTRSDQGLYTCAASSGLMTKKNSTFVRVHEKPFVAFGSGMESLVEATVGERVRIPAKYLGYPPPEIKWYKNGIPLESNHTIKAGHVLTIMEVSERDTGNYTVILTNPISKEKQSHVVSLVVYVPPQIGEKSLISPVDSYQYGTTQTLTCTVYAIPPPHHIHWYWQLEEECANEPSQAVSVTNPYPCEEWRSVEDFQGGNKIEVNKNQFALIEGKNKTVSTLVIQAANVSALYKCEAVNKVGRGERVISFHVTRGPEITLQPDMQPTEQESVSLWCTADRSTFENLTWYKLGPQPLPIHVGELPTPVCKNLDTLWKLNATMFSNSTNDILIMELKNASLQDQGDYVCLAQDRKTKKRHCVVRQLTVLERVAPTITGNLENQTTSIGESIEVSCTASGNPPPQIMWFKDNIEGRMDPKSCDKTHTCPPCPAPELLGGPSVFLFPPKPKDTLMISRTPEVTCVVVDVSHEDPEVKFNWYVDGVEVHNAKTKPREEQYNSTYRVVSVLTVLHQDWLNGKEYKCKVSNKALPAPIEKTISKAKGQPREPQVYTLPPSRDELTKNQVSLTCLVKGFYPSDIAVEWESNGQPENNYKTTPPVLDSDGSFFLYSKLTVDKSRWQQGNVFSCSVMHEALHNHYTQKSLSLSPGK

Target: T1, VEGFR2-Fc fusion (Homo sapiens, UniProt P35968)
T1 construct: His tag (only implied: capture on TALON beads, detection with penta His-HRP); purchased R&D Systems
Assay: Real time binding assay by biolayer interferometry (Octet Red), steady state analysis
Details: read-out: dissociation constant / affinity for VEGFR2; peptide on streptavidin biosensors, 2 μg/ml in kinetic buffer; steady state analysis (Example 4)

`CC[C@H](C)[C@H](NC(=O)[C@H](CC(=O)O)NC(=O)[C@H](CC(N)=O)NC(=O)[C@@H](NC(=O)[C@H](Cc1ccc(O)cc1)NC(=O)[C@H](CC(C)C)NC(=O)[C@@H](NC(=O)[C@H](CCCNC(=N)N)NC(=O)CNC(=O)[C@@H]1CCCN1C(=O)[C@H](CO)NC(=O)[C@H](CO)NC(=O)[C@H](Cc1c[nH]c2ccccc12)NC(=O)[C@H](CCSC)NC(=O)[C@H](CCCCN)NC(=O)[C@H](Cc1ccc(O)cc1)NC(=O)[C@H](Cc1c[nH]c2ccccc12)NC(=O)CNC(=O)[C@@H]1CCCN1C(=O)[C@@H]1CCCN1C(=O)[C@H](CC(C)C)NC(=O)[C@H](CCCCN)NC(=O)[C@H](CCC(=O)O)NC(=O)[C@H](CCC(=O)O)NC(=O)[C@H](CC(=O)O)NC(=O)CCCC[C@@H]1SC[C@@H]2NC(=O)N[C@@H]21)C(C)C)C(C)C)C(=O)N[C@H](C(=O)N[C@@H](Cc1c[nH]cn1)C(=O)N[C@@H](C)C(=O)N[C@@H](Cc1c[nH]cn1)C(=O)N[C@@H](CCCNC(=N)N)C(=O)N[C@@H](Cc1c[nH]c2ccccc12)C(=O)N[C@@H](CCC(=O)O)C(=O)N[C@@H](CCCNC(=N)N)C(=O)N1CCC[C@H]1C(=O)N[C@@H](CCC(=O)O)C(=O)NCC(N)=O)[C@@H](C)O` (Biotin-DEEKLPPGWYKMWSSPGRVLYVNDITHAHRWERPEG-NH2; N-terminus and C-terminus assumed) gave a Kd of 24 nM.
